Experimental data: PubChem BioAssay AID1224830 (NIAID, 2016)

Aim: 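Host factors that control LPS-induced TNF expression in human macrophages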 (primary screen)
Cells: human THP-1 monocytic leukaemia cells, TNF dual-luciferase reporter clone, PMA-differentiated to macrophage-like cells
Knock-down reagent: siRNA pool against human genes, 50 nM
Timing: LPS for 4 h, given about 3 days after siRNA transfection
Challenge: bacterial LPS (TLR4 ligand), 10 ng/ml
Measured: 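TNF firefly reporter luminescence divided by renilla, normalised to the plate median, then turned into a robust z-score for each replicate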
Direction: TNF reporter robust z-score: higher = stronger TNF reporter response to LPS
Call rule: 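Each well counts as active if its z-score is over 2.8 or under -1.5; controls are left without a call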
This is a random part of about 18,000 reagents. About 2,900 of all reagents (16%) were called active. 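Calls are made per well; low scores hint the gene aids the LPS response, high scores that it dampens it.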 Repeated entries: four replicate wells of each siRNA pool.

target gene	TNF reporter robust z-score	Outcome
NUP133 (nucleoporin 133)	0.04	inactive
NUP133 (nucleoporin 133)	0.54	inactive
NUP133 (nucleoporin 133)	-0.81	inactive
NUP133 (nucleoporin 133)	-0.2	inactive
WIPF1 (WAS/WASL interacting protein family member 1)	0.61	inactive
WIPF1 (WAS/WASL interacting protein family member 1)	0.17	inactive
WIPF1 (WAS/WASL interacting protein family member 1)	-1.36	inactive
WIPF1 (WAS/WASL interacting protein family member 1)	0.64	inactive
CA7 (carbonic anhydrase 7)	-0.29	inactive
CA7 (carbonic anhydrase 7)	-1.08	inactive
CA7 (carbonic anhydrase 7)	-0.1	inactive
CA7 (carbonic anhydrase 7)	-0.53	inactive
ENKD1 (enkurin domain containing 1)	-0.74	inactive
ENKD1 (enkurin domain containing 1)	-0.78	inactive
ENKD1 (enkurin domain containing 1)	-0.16	inactive
ENKD1 (enkurin domain containing 1)	0.02	inactive
SLC25A32	0.57	inactive
SLC25A32	0.73	inactive
SLC25A32	0.65	inactive
SLC25A32	1.32	inactive
HBG1 (hemoglobin subunit gamma 1)	-0.54	inactive
HBG1 (hemoglobin subunit gamma 1)	-1.02	inactive
HBG1 (hemoglobin subunit gamma 1)	-0.85	inactive
HBG1 (hemoglobin subunit gamma 1)	-0.03	inactive
SSX1 (SSX family member 1)	-0.56	inactive
SSX1 (SSX family member 1)	-0.1	inactive
SSX1 (SSX family member 1)	-0.4	inactive
SSX1 (SSX family member 1)	-1.14	inactive
NIT2 (nitrilase family member 2)	1.43	inactive
NIT2 (nitrilase family member 2)	0.77	inactive
NIT2 (nitrilase family member 2)	1.02	inactive
NIT2 (nitrilase family member 2)	-0.1	inactive
APIP (APAF1 interacting protein)	0.2	inactive
APIP (APAF1 interacting protein)	0.26	inactive
APIP (APAF1 interacting protein)	0.43	inactive
APIP (APAF1 interacting protein)	0.36	inactive
QTMAN (queuosine-tRNA mannosyltransferase)	0.26	inactive
QTMAN (queuosine-tRNA mannosyltransferase)	0.22	inactive
QTMAN (queuosine-tRNA mannosyltransferase)	0.07	inactive
GAN (gigaxonin)	1.21	inactive
GAN (gigaxonin)	1.91	inactive
GAN (gigaxonin)	0.13	inactive
GAN (gigaxonin)	1.41	inactive
GPHRB (golgi pH regulator B)	-0.82	inactive
GPHRB (golgi pH regulator B)	-0.81	inactive
GPHRB (golgi pH regulator B)	-0.38	inactive
GPHRB (golgi pH regulator B)	0.53	inactive
S100A10 (S100 calcium binding protein A10)	3.79	active
S100A10 (S100 calcium binding protein A10)	0.85	inactive
S100A10 (S100 calcium binding protein A10)	2.45	inactive
S100A10 (S100 calcium binding protein A10)	1.38	inactive
NPEPPS (aminopeptidase puromycin sensitive)	0.81	inactive
NPEPPS (aminopeptidase puromycin sensitive)	1.14	inactive
NPEPPS (aminopeptidase puromycin sensitive)	0.43	inactive
NPEPPS (aminopeptidase puromycin sensitive)	1.93	inactive
PRKCD (protein kinase C delta)	2.76	inactive
PRKCD (protein kinase C delta)	2.41	inactive
PRKCD (protein kinase C delta)	-0.49	inactive
PRKCD (protein kinase C delta)	0.22	inactive
NIT1 (nitrilase 1)	1	inactive
NIT1 (nitrilase 1)	1.96	inactive
NIT1 (nitrilase 1)	0.6	inactive
NIT1 (nitrilase 1)	0.86	inactive
TBC1D4 (TBC1 domain family member 4)	-0.6	inactive
TBC1D4 (TBC1 domain family member 4)	-0.71	inactive
TBC1D4 (TBC1 domain family member 4)	-0.94	inactive
TBC1D4 (TBC1 domain family member 4)	-0.86	inactive
EPHA7 (EPH receptor A7)	0.22	inactive
EPHA7 (EPH receptor A7)	-0.04	inactive
EPHA7 (EPH receptor A7)	0.73	inactive
EPHA7 (EPH receptor A7)	0.44	inactive
SLC35G2	-0.59	inactive
SLC35G2	-1.1	inactive
SLC35G2	-1.04	inactive
SLC35G2	0.49	inactive
MILR1 (mast cell immunoglobulin like receptor 1)	1.1	inactive
MILR1 (mast cell immunoglobulin like receptor 1)	0.36	inactive
MILR1 (mast cell immunoglobulin like receptor 1)	0.39	inactive
MILR1 (mast cell immunoglobulin like receptor 1)	2.15	inactive
CFAP36 (cilia and flagella associated protein 36)	-0.8	inactive
CFAP36 (cilia and flagella associated protein 36)	0.05	inactive
CFAP36 (cilia and flagella associated protein 36)	1.73	inactive
CFAP36 (cilia and flagella associated protein 36)	1.58	inactive
HOXC10 (homeobox C10)	-1.14	inactive
HOXC10 (homeobox C10)	-0.48	inactive
HOXC10 (homeobox C10)	-1.53	active
HOXC10 (homeobox C10)	-1.42	inactive
CELA1 (chymotrypsin like elastase 1)	0.73	inactive
CELA1 (chymotrypsin like elastase 1)	-1.06	inactive
CELA1 (chymotrypsin like elastase 1)	0.5	inactive
CELA1 (chymotrypsin like elastase 1)	1.38	inactive
GRINA	-1.31	inactive
GRINA	-1.22	inactive
GRINA	-1.42	inactive
GRINA	-0.78	inactive
MRPL49 (mitochondrial ribosomal protein L49)	2.22	inactive
MRPL49 (mitochondrial ribosomal protein L49)	1.43	inactive
MRPL49 (mitochondrial ribosomal protein L49)	1.44	inactive
MRPL49 (mitochondrial ribosomal protein L49)	1.77	inactive
RTL8C (retrotransposon Gag like 8C)	-0.85	inactive
RTL8C (retrotransposon Gag like 8C)	0.62	inactive
RTL8C (retrotransposon Gag like 8C)	-0.6	inactive
RIMS4 (regulating synaptic membrane exocytosis 4)	-0.19	inactive
RIMS4 (regulating synaptic membrane exocytosis 4)	1.06	inactive
RIMS4 (regulating synaptic membrane exocytosis 4)	-0.06	inactive
RIMS4 (regulating synaptic membrane exocytosis 4)	0.27	inactive
C16orf46 (chromosome 16 open reading frame 46)	0.31	inactive
C16orf46 (chromosome 16 open reading frame 46)	-0.31	inactive
C16orf46 (chromosome 16 open reading frame 46)	-0.49	inactive
C16orf46 (chromosome 16 open reading frame 46)	-1.03	inactive
APPBP2 (amyloid beta precursor protein binding protein 2)	0.31	inactive
APPBP2 (amyloid beta precursor protein binding protein 2)	-0.19	inactive
APPBP2 (amyloid beta precursor protein binding protein 2)	0.12	inactive
APPBP2 (amyloid beta precursor protein binding protein 2)	1.18	inactive
PHYKPL (5-phosphohydroxy-L-lysine phospho-lyase)	-0.65	inactive
PHYKPL (5-phosphohydroxy-L-lysine phospho-lyase)	0.13	inactive
PHYKPL (5-phosphohydroxy-L-lysine phospho-lyase)	-0.22	inactive
PHYKPL (5-phosphohydroxy-L-lysine phospho-lyase)	0.8	inactive
COL23A1 (collagen type XXIII alpha 1 chain)	-1.28	inactive
COL23A1 (collagen type XXIII alpha 1 chain)	-1.33	inactive
COL23A1 (collagen type XXIII alpha 1 chain)	-1.86	active
COL23A1 (collagen type XXIII alpha 1 chain)	-0.79	inactive
RIMS2 (regulating synaptic membrane exocytosis 2)	0.3	inactive
RIMS2 (regulating synaptic membrane exocytosis 2)	1.55	inactive
RIMS2 (regulating synaptic membrane exocytosis 2)	0.36	inactive
RIMS2 (regulating synaptic membrane exocytosis 2)	1.9	inactive
DENR (density regulated re-initiation and release factor)	-0.8	inactive
DENR (density regulated re-initiation and release factor)	-0.66	inactive
DENR (density regulated re-initiation and release factor)	-1.11	inactive
DENR (density regulated re-initiation and release factor)	-0.95	inactive
WFDC9 (WAP four-disulfide core domain 9)	-0.54	inactive
WFDC9 (WAP four-disulfide core domain 9)	-0.57	inactive
WFDC9 (WAP four-disulfide core domain 9)	0.02	inactive
WFDC9 (WAP four-disulfide core domain 9)	-0.87	inactive
CAMK2N2 (calcium/calmodulin dependent protein kinase II inhibitor 2)	0.39	inactive
CAMK2N2 (calcium/calmodulin dependent protein kinase II inhibitor 2)	0.05	inactive
CAMK2N2 (calcium/calmodulin dependent protein kinase II inhibitor 2)	-0.25	inactive
CAMK2N2 (calcium/calmodulin dependent protein kinase II inhibitor 2)	0.33	inactive
SLC2A7	0.58	inactive
SLC2A7	-0.21	inactive
SLC2A7	-0.59	inactive
SLC2A7	-0.91	inactive
